The test addresses lamin. Description: yeast two-hybrid test.

These results are taken from US20040219615A1.

Results are given in words; binding and its absence hold for the method and conditions named.

B1: clone #84 (protein, UniProt Q99675 1-332, looked up)
chain: MAAVFLVTLYEYSPLFYIAVVFTCFIVTTGLVLGWFGWDVPVILRNSEETQFSTRVFKKQMRQVKNPFGLEITNPSSASITTGITLTTDCLEDSLLTCYWGCSVQKLYEALQKHVYCFRISTPQALEDALYSEYLYQEQYFIKKDSKEEIYCQLPRDTKIEDFGTVPRSRYPLVALLTLADEDDREIYDIISMVSVIHIPDRTYKLSCRILYQYLLLAQGQFHDLKQLFMSANNNFTPSNNSSSEEKNTDRSLLEKVGLSESEVEPSEENSKDCVVCQNGTVNWVLLPCRHTCLCDGCVKYFQQCPMCRQFVQESFALCSQKEQDKDKPKTL
As to B1, the binding result was “no binding”.
